Reference: PubChem BioAssay AID540256 (National Center for Advancing Translational Sciences (NCATS), 2011)
Hit rate of the full screen: of about 300,000 compounds, about 3,700 (1.2%) were called active. Inconclusive results, whose numbers are uncertain, are shown with a selection of clear calls. Calls come from the whole dose curve; tested in HEK293 cells. A potency beside an inconclusive call is a rough fit, not a confirmed value.

Experiment: qHTS for Inhibitors of binding or entry into cells for Lassa Virus; note: nearly all actives have a fitted effect of over 50% in size
Conditions: Lassa virus pseudotype entry inhibition, cell reporter; series mostly up to 37.9 µM
Potency is the fitted concentration of half-maximal effect.

Structure (SMILES) | Potency
COc1cc(CNC(=O)c2sc3ncccc3c2-n2cccc2)cc(OC)c1OC | inconclusive: 25.1 µM [inhibitor, single point]
COC(=O)c1ccc(OC(=O)CCN2C(=O)C3CCCCC3C2=O)cc1 (centres undefined) | inconclusive: 11.2 µM [activator, partial curve, poor fit]
CSc1ccc(CCNC(=O)C2=C(C)C(=O)OC23CCCCC3)cc1 | inconclusive: 7.08 µM [activator, partial curve, poor fit]
O=C(/C=C/Nc1ccc(Br)cc1F)c1ccco1 | active: 2.24 µM
CCOC(=O)c1[nH]c2ccc(Cl)cc2c1NC(=O)/C=C/c1ccc2c(c1)OCO2 | inconclusive: 3.55 µM [inhibitor, partial curve]
Cc1cc(C(=O)N/N=C/c2cc([N+](=O)[O-])cc(C)c2O)n[nH]1 | inconclusive: 16.4 µM [inhibitor, partial curve, poor fit]
COc1cccc(-c2cc3nc(-c4ccccc4)cc(N4CCC5(CC4)OCCO5)n3n2)c1 | inconclusive: 6.51 µM [inhibitor, full curve, poor fit]
Cc1[nH]c2c(C)cccc2c1CCNC(=O)c1ccc2c(c1[N+](=O)[O-])C(=O)c1ccccc1C2=O | inconclusive: 35.5 µM [inhibitor, single point]
CC(C)(C)OC(=O)N1CCCC(C(=O)Nc2ccc(C(=O)N3CCCCC3)cc2)C1 (centres undefined) | inconclusive: 0.0791 µM [activator, full curve, poor fit]
O=C(COc1ccc([N+](=O)[O-])cc1)Nc1ccncc1 | inconclusive: 35.5 µM [inhibitor, partial curve, poor fit]
COc1ccccc1N1CCN(Cc2ccc(F)cc2)CC1 | inconclusive: 15.8 µM [inhibitor, single point]
CCN(CC)S(=O)(=O)c1ccc(C(=O)NCCN2C(=O)S/C(=C\c3cccnc3)C2=O)cc1 | inconclusive: 29.1 µM [inhibitor, single point]
Cc1occc1C(=O)N/N=C/c1ccc(-c2ccccc2)cc1 | active: 7.94 µM
Cn1c(=O)c(C(=O)NNC(=O)c2ccccc2F)c(O)c2ccccc21 | inconclusive: 10 µM [inhibitor, partial curve, poor fit]
CCOc1ccc(NC(=O)c2cc3c(C)nn(-c4ccccc4)c3s2)cc1 | inactive
CCn1c2ccccc2c2cc(NC(=O)c3cc(OC)cc(OC)c3)ccc21 | inconclusive: 2 µM [inhibitor, full curve]
Cc1cc(C)c2c(CN3CCCCC3)cc(=O)oc2c1 | inconclusive: 3.53 µM [activator, single point]
O=C(NCCC(=O)N1CCN(c2cccc(Cl)c2)CC1)c1ccc(Br)cc1 | inconclusive: 15.8 µM [inhibitor, single point]
CC(c1ccccc1)N1CCC(CNC(=S)Nc2cccc(Cl)c2)C1 (centres undefined) | inconclusive: 15.8 µM [inhibitor, single point]
Cc1cc(Cl)ccc1NC(=S)Nc1ccccn1 | inactive
Cc1cc(C)cc(NC(=O)c2cc(C)nc3c2c(C)nn3-c2ccccc2)c1 | inconclusive: 35.5 µM [activator, single point]
Cc1ccc(NC(=S)Nc2ccc(F)cc2)c(C)c1 | inactive

Structure (SMILES) | Potency
O=C(COC(=O)c1cncc(Br)c1)NCc1ccccc1Cl | inconclusive: 1 µM [inhibitor, single point]
O=c1c2ccccc2nc(CSc2nnnn2-c2ccccc2)n1-c1ccccc1Cl | inconclusive: 2.24 µM [inhibitor, full curve]
O=C(CCNC(=O)c1ccccc1Cl)Nc1nc2ccccc2[nH]1 | inconclusive: 6.31 µM [inhibitor, single point]
O=C(/C=C/c1cccs1)c1ccc(NC(=O)c2cccc(Br)c2)cc1 | inactive
CN1CCN(CCCNC(=O)c2ccc(Cn3c(=S)[nH]c4ccc(Br)cc4c3=O)cc2)CC1 | inactive
COc1cccc(OCc2cc(C(=O)N3CCN(c4ccccc4O)CC3)no2)c1 | inconclusive: 11.2 µM [inhibitor, single point]
O=C(O)CCN1C(=O)c2ccncc2C1=O | inactive
Clc1ccccc1CNc1ncnc2c1nc1n2CCCC1 | inconclusive: 14.1 µM [inhibitor, partial curve, poor fit]
Cc1cccc(-c2nc(S(=O)(=O)c3ccc(Cl)cc3)c(N3CCCCCC3)o2)c1 | inactive
COC(=O)C1=C(Nc2ccc(OC)cc2)C=C(C)C(C(=O)OC)C1c1ccc(C)cc1 (centres undefined) | inconclusive: 14.1 µM [inhibitor, partial curve, poor fit]
CC1CC(C)CN(CC(O)COCCOc2ccc(Br)cc2)C1 (centres undefined) | inconclusive: 29.1 µM [inhibitor, single point]
Cc1ccc(C(=O)O/N=C2\CCSc3ccc(C)cc32)cc1 | inconclusive: 25.9 µM [activator, single point]
COc1ccccc1NC(=O)CN1C(=O)NC2(CCCCCCC2)C1=O | inconclusive: 1.26 µM [inhibitor, single point]
CCOc1ccccc1CNC(=O)c1nc(-c2ccc(Cl)cc2)n2c1CCCCC2 | inactive
Cc1ccccc1C(=O)Nc1ccccc1OCc1cc(=O)n2ccccc2n1 | inconclusive: 3.98 µM [inhibitor, partial curve, poor fit]
CCN1CCN(c2cc(C)c3cc(NC(=S)N(C)Cc4ccccc4)ccc3n2)CC1 | inconclusive: 22.4 µM [inhibitor, single point]
COC(=O)c1ccc(NC(=O)CSc2nnc(COc3ccccc3)n2C)cc1 | inactive
CC(=O)C1=NOC(CNc2ncc(C(F)(F)F)cc2Cl)C1 (centres undefined) | inactive
Nc1nc(NC(=O)C(Cl)(Cl)Cl)nn1-c1ccccc1 | inconclusive: 0.259 µM [inhibitor, single point]
O=C(O)c1cccc2c1C(=O)N(c1ccccc1)C2 | inactive
CCN(c1ccc(NC(=O)COC(=O)c2cccs2)cc1)C(C)C | inactive
Cc1ccc2nc(NC(=O)C3CC(=O)N(Cc4ccco4)C3)sc2c1 (centres undefined) | inactive

Part of the list above, reformatted.
Structure (SMILES),Potency
COC(=O)c1ccc(NC(=O)CSc2nnc(COc3ccccc3)n2C)cc1,inactive
CC(=O)C1=NOC(CNc2ncc(C(F)(F)F)cc2Cl)C1 (centres undefined),inactive
